According to the supplement of paper PMC10849652:
This is one part of the list.

By UniProt entry, the sequences of proteins in these tests, tags left out. Where a name states a change or a piece, a line headed by the entry shows the natural chain unless it says otherwise.
UniProt O94829: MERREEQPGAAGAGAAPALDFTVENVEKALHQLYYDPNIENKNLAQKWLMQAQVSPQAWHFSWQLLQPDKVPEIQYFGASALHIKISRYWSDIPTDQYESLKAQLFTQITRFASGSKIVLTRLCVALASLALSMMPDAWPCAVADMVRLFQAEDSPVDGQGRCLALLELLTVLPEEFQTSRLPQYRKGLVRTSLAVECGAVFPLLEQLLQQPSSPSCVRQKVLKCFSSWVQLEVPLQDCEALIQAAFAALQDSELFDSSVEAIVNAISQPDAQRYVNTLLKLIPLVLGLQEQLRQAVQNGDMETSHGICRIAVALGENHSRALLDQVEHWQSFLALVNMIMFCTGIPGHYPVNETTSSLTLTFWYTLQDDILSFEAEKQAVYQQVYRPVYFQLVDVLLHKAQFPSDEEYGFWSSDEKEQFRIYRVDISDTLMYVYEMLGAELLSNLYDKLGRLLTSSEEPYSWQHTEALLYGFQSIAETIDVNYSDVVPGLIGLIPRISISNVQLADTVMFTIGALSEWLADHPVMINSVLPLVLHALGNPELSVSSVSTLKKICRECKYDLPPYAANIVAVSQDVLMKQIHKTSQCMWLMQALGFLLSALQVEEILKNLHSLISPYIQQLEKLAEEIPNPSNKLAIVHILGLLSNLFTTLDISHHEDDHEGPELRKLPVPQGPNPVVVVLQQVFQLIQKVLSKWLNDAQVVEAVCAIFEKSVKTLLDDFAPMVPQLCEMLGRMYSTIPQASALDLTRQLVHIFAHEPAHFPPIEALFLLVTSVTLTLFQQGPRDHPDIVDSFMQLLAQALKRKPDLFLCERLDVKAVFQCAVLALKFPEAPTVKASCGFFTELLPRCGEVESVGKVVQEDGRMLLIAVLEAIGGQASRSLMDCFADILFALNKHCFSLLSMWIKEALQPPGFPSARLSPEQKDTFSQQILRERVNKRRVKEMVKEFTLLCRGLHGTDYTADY
UniProt P80217: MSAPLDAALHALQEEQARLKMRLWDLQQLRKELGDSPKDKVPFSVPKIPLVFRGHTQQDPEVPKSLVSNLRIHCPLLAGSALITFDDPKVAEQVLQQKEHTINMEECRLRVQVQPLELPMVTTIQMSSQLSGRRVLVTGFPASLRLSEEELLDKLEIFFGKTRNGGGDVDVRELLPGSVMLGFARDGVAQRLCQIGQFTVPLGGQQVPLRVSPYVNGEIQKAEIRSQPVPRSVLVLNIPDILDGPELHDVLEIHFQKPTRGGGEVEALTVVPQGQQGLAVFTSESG
UniProt P46940, whole entry, looked up: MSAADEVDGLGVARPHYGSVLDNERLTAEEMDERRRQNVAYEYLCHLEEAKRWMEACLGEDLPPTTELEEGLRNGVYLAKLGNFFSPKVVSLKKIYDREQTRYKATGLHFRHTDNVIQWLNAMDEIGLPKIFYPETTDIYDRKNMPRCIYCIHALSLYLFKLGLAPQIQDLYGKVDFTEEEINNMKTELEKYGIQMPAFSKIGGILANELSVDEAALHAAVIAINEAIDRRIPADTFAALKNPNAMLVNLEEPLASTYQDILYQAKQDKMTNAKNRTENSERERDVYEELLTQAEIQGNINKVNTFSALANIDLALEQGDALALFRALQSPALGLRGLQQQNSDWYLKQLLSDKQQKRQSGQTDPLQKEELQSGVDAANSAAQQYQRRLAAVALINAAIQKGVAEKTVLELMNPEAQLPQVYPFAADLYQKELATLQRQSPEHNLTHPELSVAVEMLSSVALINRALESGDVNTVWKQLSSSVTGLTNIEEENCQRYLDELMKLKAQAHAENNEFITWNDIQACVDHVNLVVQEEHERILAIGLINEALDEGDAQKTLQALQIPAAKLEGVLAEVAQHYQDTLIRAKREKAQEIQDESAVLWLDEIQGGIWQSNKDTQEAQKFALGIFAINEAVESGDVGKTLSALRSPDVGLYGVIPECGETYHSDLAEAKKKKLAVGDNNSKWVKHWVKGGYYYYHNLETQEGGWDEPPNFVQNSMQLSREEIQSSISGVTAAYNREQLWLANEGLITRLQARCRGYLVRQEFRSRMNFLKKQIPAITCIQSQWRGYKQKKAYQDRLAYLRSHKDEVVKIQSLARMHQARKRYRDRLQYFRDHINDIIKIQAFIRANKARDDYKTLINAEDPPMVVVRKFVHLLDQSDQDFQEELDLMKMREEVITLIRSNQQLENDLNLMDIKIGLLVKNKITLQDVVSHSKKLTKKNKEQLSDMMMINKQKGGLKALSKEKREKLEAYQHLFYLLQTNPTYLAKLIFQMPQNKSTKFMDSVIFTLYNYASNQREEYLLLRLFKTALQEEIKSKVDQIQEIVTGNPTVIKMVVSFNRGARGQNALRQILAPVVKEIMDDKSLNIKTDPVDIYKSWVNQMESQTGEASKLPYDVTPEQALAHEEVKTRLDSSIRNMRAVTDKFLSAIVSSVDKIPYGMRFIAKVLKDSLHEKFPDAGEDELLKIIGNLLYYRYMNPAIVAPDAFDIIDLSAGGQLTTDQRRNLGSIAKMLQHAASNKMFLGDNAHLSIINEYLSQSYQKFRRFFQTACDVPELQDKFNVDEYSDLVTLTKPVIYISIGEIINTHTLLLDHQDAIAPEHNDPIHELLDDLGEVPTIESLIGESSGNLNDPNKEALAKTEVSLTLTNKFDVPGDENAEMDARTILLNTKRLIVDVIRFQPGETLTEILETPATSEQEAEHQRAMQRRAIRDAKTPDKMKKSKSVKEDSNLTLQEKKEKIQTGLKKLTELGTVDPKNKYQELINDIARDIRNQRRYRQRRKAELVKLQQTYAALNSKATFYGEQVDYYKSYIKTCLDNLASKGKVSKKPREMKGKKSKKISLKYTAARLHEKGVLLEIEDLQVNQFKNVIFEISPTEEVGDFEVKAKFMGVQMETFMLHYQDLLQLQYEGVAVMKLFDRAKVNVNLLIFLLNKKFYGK
UniProt P29218: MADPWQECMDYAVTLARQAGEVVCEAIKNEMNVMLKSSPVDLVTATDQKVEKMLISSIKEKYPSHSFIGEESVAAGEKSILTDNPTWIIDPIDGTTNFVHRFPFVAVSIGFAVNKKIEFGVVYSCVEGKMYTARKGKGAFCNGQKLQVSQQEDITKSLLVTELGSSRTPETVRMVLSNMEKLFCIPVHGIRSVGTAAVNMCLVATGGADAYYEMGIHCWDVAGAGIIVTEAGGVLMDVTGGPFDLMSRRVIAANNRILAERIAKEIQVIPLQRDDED
UniProt P05556, whole entry, looked up: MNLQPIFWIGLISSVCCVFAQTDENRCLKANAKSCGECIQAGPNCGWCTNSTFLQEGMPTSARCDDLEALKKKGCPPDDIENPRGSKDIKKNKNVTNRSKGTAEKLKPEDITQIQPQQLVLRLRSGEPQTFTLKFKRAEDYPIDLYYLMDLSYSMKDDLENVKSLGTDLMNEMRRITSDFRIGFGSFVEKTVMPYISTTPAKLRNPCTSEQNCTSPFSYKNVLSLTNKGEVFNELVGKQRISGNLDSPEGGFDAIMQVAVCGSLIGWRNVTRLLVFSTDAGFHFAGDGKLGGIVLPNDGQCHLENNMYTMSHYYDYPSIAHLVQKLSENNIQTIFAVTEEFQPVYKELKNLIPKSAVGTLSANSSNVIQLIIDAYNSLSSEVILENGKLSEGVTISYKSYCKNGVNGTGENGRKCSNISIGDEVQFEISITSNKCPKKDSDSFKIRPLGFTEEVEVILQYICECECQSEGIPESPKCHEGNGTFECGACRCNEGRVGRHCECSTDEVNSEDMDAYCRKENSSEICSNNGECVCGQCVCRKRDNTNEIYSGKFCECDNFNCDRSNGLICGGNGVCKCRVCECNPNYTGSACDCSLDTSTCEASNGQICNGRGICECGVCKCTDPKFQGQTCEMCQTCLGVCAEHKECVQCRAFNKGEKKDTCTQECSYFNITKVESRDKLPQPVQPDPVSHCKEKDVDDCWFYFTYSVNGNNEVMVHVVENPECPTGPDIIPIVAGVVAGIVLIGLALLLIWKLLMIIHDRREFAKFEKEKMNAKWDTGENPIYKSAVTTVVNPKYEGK
UniProt O00410: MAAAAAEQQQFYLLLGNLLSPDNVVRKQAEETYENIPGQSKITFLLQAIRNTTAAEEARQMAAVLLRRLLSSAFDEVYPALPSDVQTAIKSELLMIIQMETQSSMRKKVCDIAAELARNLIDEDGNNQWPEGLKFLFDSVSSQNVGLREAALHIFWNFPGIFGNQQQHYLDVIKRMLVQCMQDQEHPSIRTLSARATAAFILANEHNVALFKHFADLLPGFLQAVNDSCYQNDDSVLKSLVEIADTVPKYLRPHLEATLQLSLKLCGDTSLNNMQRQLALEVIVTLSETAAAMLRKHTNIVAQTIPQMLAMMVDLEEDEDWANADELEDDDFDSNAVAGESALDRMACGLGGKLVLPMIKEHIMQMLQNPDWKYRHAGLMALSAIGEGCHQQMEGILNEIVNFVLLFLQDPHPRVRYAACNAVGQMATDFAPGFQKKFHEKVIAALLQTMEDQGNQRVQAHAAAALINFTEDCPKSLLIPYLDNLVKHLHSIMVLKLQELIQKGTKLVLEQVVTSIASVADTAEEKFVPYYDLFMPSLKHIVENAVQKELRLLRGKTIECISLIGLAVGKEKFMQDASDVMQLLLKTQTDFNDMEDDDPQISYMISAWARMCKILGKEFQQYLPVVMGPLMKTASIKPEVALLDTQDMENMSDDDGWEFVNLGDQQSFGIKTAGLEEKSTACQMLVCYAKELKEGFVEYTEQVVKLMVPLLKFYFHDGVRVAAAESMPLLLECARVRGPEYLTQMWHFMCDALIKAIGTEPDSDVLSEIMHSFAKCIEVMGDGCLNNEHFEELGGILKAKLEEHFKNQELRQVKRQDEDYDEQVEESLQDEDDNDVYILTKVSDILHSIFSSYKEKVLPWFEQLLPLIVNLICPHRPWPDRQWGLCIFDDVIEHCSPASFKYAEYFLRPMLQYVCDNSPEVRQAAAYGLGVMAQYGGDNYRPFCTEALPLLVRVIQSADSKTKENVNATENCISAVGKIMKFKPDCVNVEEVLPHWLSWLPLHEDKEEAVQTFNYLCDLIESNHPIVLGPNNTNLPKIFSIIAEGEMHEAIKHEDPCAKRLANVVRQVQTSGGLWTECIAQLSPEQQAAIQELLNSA
UniProt Q96SY0, whole entry, looked up: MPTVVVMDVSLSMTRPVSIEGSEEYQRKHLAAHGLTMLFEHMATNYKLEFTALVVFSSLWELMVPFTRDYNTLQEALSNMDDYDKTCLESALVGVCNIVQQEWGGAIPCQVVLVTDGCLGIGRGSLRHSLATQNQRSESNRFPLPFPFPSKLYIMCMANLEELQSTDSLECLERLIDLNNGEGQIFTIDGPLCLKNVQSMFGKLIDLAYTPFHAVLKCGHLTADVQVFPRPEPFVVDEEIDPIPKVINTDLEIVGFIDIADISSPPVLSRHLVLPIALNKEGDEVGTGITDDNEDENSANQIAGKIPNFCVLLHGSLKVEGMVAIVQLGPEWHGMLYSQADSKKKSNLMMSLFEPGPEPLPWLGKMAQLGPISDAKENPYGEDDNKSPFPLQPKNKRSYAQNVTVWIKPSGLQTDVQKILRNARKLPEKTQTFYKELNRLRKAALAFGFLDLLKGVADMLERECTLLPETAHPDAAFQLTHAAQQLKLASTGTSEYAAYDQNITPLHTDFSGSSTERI

How the values were obtained:
Assay in all cases: log2 fold change, soluble protein after heating vs DMSO (PISA); higher = thermal stabilisation; K562 cells, 10 uM, 30 min; active = over 0.2 and 3.5 SD of the protein, either way, in both replicates (recomputed)
bafetinib = compound: Cc1ccc(NC(=O)c2ccc(CN3CC[C@H](N(C)C)C3)c(C(F)(F)F)c2)cc1Nc1nccc(-c2cncnc2)n1 [bafetinib]
Outline: (§1)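 K562 cells (2×10^6 cells/mL) were treated with 10 μM compound for 30 min, and aliquots were heated for 3 min over 48°C-58°C. Pooled aliquots were extracted in PBS with 0.5% NP-40 at 4°C, and the supernatant after 21,000xg for 90 min was measured by TMTpro 16plex LC-MS/MS with channel sums equalised. Reported thermal stability, relative to control samples and from duplicates, is a log2 fold change.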

[1] = compound: Cc1cccc(CC(=O)N2CCc3c2ccc(-c2cn(C)c4ncnc(N)c24)c3F)n1
Outline: as §1

nilotinib = compound: Cc1cn(-c2cc(NC(=O)c3ccc(C)c(Nc4nccc(-c5cccnc5)n4)c3)cc(C(F)(F)F)c2)cn1 [nilotinib]
Outline: as §1

[2] = compound: Cc1nc(Nc2n[nH]c3c2CN(C(=O)N[C@H](CN(C)C)c2ccccc2)C3(C)C)c2sccc2n1
Outline: as §1

dasatinib = compound: Cc1nc(Nc2ncc(C(=O)Nc3c(C)cccc3Cl)s2)cc(N2CCN(CCO)CC2)n1 [dasatinib]
Outline: as §1

[3] = compound: Cc1ncc(-c2ccnc(Nc3ccc(S(C)(=O)=O)cc3)n2)n1C(C)C
Outline: as §1

[4] = compound: Cn1cc(-c2ccc3c(c2)CCN3C(=O)Cc2cccc(C(F)(F)F)c2)c2c(N)ncnc21
Outline: as §1

[5] = compound: Cn1cc(-c2ccc3nnc(C(F)(F)c4ccc5ncccc5c4)n3n2)cn1
Outline: as §1

tipifarnib = compound: Cn1cncc1[C@@](N)(c1ccc(Cl)cc1)c1ccc2c(c1)c(-c1cccc(Cl)c1)cc(=O)n2C [tipifarnib]
Outline: as §1

mubritinib = compound: FC(F)(F)c1ccc(/C=C/c2nc(COc3ccc(CCCCn4ccnn4)cc3)co2)cc1 [mubritinib]
Outline: as §1

[6] = compound: NC(=O)Nc1cc(-c2cccc(F)c2)sc1C(=O)N[C@H]1CCCNC1
Outline: as §1

[7] = compound: NC(=O)c1cnc(N[C@@H]2CCCC[C@@H]2N)nc1Nc1cccc(-n2nccn2)c1
Outline: as §1

[8] = compound: NC1(c2ccc(-c3nc4ccn5c(=O)[nH]nc5c4cc3-c3ccccc3)cc2)CCC1
Outline: as §1

[9] = compound: NCC(=O)Nc1ccc(-n2nc(C(F)(F)F)cc2-c2ccc3c(ccc4ccccc43)c2)cc1
Outline: as §1

entinostat = compound: Nc1ccccc1NC(=O)c1ccc(CNC(=O)OCc2cccnc2)cc1 [entinostat]
Outline: as §1

vorinostat = compound: O=C(CCCCCCC(=O)Nc1ccccc1)NO [vorinostat]
Outline: as §1

citarinostat = compound: O=C(CCCCCCNC(=O)c1cnc(N(c2ccccc2)c2ccccc2Cl)nc1)NO [citarinostat]
Outline: as §1

silmitasertib = compound: O=C(O)c1ccc2c(c1)nc(Nc1cccc(Cl)c1)c1ccncc12 [silmitasertib]
Outline: as §1

[10] = compound: O=C1NC(=O)C(c2cnc3ccccn23)=C1c1cn2c3c(cc(F)cc13)CN(C(=O)N1CCCCC1)CC2
Outline: as §1

[11] = compound: c1cc(OCCN2CCCCC2)cc(-c2n[nH]c3ccc(-c4nnc[nH]4)cc23)c1
Outline: as §1

Measured: log2 fold change

IPO13 (UniProt O94829)
inactive: bafetinib -0.11 | [1] -0.006 | nilotinib -0.001 | [2] -0.094 | dasatinib -0.021 | [3] 0.071 | [4] -0.022 | [5] -0.025 | tipifarnib -0.106 | mubritinib 0.06 | [6] 0.051 | [7] -0.101 | [8] -0.206 | [9] -0.112 | entinostat 0.012 | vorinostat 0.138 | citarinostat 0.067 | silmitasertib 0.081 | [10] -0.046 | [11] -0.175

IFI35 isoform 2 (UniProt P80217)
inactive: bafetinib -0.037 | [1] 0 | nilotinib 0.027 | [2] 0.006 | dasatinib -0.022 | [3] -0.027 | [4] 0.082 | [5] 0.032 | tipifarnib -0.03 | mubritinib 0.048 | [6] -0.018 | [7] 0.007 | [8] -0.063 | [9] 0.027 | entinostat -0.014 | vorinostat 0.011 | citarinostat -0.006 | silmitasertib -0.099 | [10] -0.024 | [11] -0.053

IQGAP1 (UniProt P46940)
inactive: bafetinib -0.028 | [1] 0.057 | nilotinib -0.084 | [2] -0.046 | dasatinib -0.135 | [3] -0.054 | [4] 0.052 | [5] 0.012 | tipifarnib -0.026 | mubritinib 0.082 | [6] -0.029 | [7] -0.012 | [8] -0.165 | [9] -0.047 | entinostat 0.059 | vorinostat 0.05 | citarinostat 0.069 | silmitasertib -0.047 | [10] -0.079 | [11] -0.054

IMPA1 isoform 3 (UniProt P29218)
inactive: bafetinib -0.013 | [1] 0 | nilotinib -0.007 | [2] 0.022 | dasatinib 0.066 | [3] -0.003 | [4] 0 | [5] 0.018 | tipifarnib 0.006 | mubritinib 0.013 | [6] -0.006 | [7] 0.012 | [8] -0.013 | [9] 0.021 | entinostat -0.032 | vorinostat 0.009 | citarinostat -0.002 | silmitasertib -0.022 | [10] 0.005 | [11] 0.016

ITGB1 (UniProt P05556)
inactive: bafetinib -0.037 | [1] -0.044 | nilotinib 0.026 | [2] -0.004 | dasatinib 0.025 | [3] -0.011 | [4] 0.011 | [5] 0.023 | tipifarnib 0.043 | mubritinib 0.002 | [6] -0.045 | [7] 0.091 | [8] 0.032 | [9] 0.069 | entinostat -0.022 | vorinostat -0.026 | citarinostat -0.001 | silmitasertib -0.016 | [10] -0.028 | [11] -0.026

INPP4A (UniProt Q96PE3)
inactive: bafetinib -0.065 | [1] -0.138 | nilotinib 0.06 | [2] -0.018 | dasatinib 0.01 | [3] 0.038 | [4] 0.072 | [5] -0.034 | tipifarnib 0.02 | mubritinib 0.032 | [6] 0.017 | [7] -0.009 | [8] 0.021 | [9] -0.057 | entinostat -0.003 | vorinostat -0.012 | citarinostat 0.001 | silmitasertib 0.055 | [10] -0.134 | [11] 0.012

IPO5 isoform 3 (UniProt O00410)
inactive: bafetinib 0.03 | [1] 0.082 | nilotinib 0.003 | [2] -0.057 | dasatinib -0.082 | [3] -0.078 | [4] 0.036 | [5] -0.017 | tipifarnib -0.106 | mubritinib 0.02 | [6] 0.015 | [7] -0.037 | [8] -0.206 | [9] 0.046 | entinostat 0.001 | vorinostat 0.088 | citarinostat 0.055 | silmitasertib -0.009 | [10] 0.041 | [11] -0.052

INTS14 (UniProt Q96SY0)
inactive: bafetinib -0.051 | [1] 0.044 | nilotinib -0.016 | [2] -0.049 | dasatinib -0.054 | [3] -0.037 | [4] 0.059 | [5] 0.009 | tipifarnib 0.004 | mubritinib 0.021 | [6] -0.01 | [7] -0.06 | [8] -0.132 | [9] -0.043 | entinostat 0.059 | vorinostat 0.066 | citarinostat 0.062 | silmitasertib 0.017 | [10] -0.045 | [11] -0.024
